What is called IC50 is the concentration needed to halve the response being measured.

Sequences of proteins named here, by UniProt entry; tags and fusion partners are left off. Residues count along the entry.
UniProt P14174, 2-115 limits assumed: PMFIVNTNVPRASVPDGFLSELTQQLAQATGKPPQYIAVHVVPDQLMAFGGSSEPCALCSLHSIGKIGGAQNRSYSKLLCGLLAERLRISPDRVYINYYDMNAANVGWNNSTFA

In US7378416B2 one finds IC50 data, which are given here for one compound.

This assay concerns the target Human MIF protein (Homo sapiens, UniProt P14174). Briefly: MIF tautomerase HPP assay adapted to the microtiter plate format. The following applies: read-out: inhibition of MIF tautomerase activity, half-maximal inhibition (IC50); substrate p-hydroxyphenylpyruvate (HPP) 200 μM, enzyme 18.3 nM, pH 6.5, OD 310 nm. The method, then:
The natural substrates of MIF enzyme activity are not yet known with certainty. […] The assay used herein is such HPP assay adapted to the microtiter plate format: • Human MIF protein is purified according to Bernhagen et al. Biochemistry, 33:14144-14155, 1994. Dilutions of the enzyme are prepared in 50 mM sodium phosphate buffer, 1 mM EDTA, pH 6.5. • HPP is obtained from Aldrich. A stock solution of 60 mM HPP in ethanol is prepared and kept for maximally 4 hours on ice. […] Addition of substrate to start the reaction is performed with an Igel 96 pipetting station (OpalJena, Jena, Germany), which allows simultaneous addition of fluid to all 96 wells of the plates. • Optical density (OD) is determined using a SPECTRAmax 250 reader (Molecular Devices). The reader is operated with the SoftmaxPro 2.6.1 software. • Assay: Three wells of the microtiter plates are filled with buffer only, to allow for blanking. […]
The last step is performed using the 96-channel pipetting device. The plate is then immediately (i.e. within a few seconds) transferred manually to the SPECTRAmax 250 reader and the optical density is determined (310 nm).
From the data obtained, IC50 values are calculated using Excel™ and XLfit™ software.

Structures were worked out from names or drawings and are uncertain.

In the case of `COc1ccc(N2Cc3ccc(O)cc3OC2=O)cc1`, the IC50 amounted to 20 nM.
